According to PubChem BioAssay AID2442 (Broad Institute, 2010):
The other results are listed elsewhere or left out. Entries with a potency or affinity are not part of this list. The source made no clear call on entries shown without one.

Assay: PubChem AID 2442
Conditions: H4 cells, SNCA 5'UTR luciferase translation, luminescence; at 6 µM (top of the series)

Row | Compound | activation [%]
1 | CCc1ccc(CNC(=O)Cc2ccc(NC(=O)C3=C(C)OCCS3)cc2)cc1 | -15.5
2 | CCOC(=O)c1[nH]c(C)c(C(=O)N2CCc3ccccc32)c1C | -35.1
